For part of these data: Negatives hold for the conditions tested. For part of these data: Protein sequences can lack the tags named with them.
Key:
interleukin-6 = interleukin-6 (UniProt P05231); assay: activity in cells; settings: no inhibition of IL-6-driven STAT-sPAP reporter in HepG2, purified recombinant protein, dose not given here
[1] = molecular target: T1, oncostatin M (hOSM, mature) (Homo sapiens) (UniProt P13725); assay: filter binding; settings: 2'-F pyrimidines; aptamer generated to CD95 ligand, control; purified recombinant protein
T1 sequence: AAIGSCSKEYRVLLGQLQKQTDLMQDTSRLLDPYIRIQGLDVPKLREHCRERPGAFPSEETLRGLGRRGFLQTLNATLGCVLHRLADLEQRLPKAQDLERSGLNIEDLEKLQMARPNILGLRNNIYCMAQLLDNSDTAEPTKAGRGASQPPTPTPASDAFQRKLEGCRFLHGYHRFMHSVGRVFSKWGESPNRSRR

Amino acid sequences for entries named in this document (tags omitted). Residues count along the entry.
UniProt P05231, 30-212: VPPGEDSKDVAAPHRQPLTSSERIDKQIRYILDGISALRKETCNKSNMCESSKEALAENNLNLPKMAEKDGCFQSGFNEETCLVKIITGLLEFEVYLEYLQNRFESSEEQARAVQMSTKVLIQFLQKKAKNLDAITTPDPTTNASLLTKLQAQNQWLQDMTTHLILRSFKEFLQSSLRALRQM

GGGAGGACGAUGCGGAUCGCCCUGAACCGGCCCAGCAGACUGCUGACGGCACGAUCAGACGACUCGCCCGA [ADR58]
functional effect of the aptamer (interleukin-6; 2'-F C and U (2'-F pyrimidines), 2'-OH purines): not active

GGGAGGACGAUGCGGUUAUACUAAGCUGCGGUUAGCGACAGCCCUCCCUAGCGCCUCAGACGACUCGCCCGA [ADR147 (aptamer raised to CD95 ligand)]
Kd [1]: > 1 µM | functional effect of the aptamer (interleukin-6; 2'-F pyrimidines): not active
